## Results of single-concentration screens

Chains of the proteins cited; added tags and fusions are not shown. Residues count along the entry.
UniProt Q4DA54, 1-478: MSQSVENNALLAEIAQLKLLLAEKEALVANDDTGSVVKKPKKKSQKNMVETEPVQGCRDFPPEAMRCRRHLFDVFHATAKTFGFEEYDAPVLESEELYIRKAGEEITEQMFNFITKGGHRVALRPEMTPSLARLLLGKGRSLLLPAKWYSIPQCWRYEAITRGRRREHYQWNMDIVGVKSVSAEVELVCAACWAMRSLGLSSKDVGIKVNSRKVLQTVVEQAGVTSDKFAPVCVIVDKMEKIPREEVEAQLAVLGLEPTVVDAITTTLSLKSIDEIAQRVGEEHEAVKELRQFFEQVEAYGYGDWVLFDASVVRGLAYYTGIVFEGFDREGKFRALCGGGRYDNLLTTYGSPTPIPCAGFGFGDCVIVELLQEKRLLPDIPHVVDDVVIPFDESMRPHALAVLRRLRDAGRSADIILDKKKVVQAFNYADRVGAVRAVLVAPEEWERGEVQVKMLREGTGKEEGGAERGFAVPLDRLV
UniProt P9WNZ1, whole entry: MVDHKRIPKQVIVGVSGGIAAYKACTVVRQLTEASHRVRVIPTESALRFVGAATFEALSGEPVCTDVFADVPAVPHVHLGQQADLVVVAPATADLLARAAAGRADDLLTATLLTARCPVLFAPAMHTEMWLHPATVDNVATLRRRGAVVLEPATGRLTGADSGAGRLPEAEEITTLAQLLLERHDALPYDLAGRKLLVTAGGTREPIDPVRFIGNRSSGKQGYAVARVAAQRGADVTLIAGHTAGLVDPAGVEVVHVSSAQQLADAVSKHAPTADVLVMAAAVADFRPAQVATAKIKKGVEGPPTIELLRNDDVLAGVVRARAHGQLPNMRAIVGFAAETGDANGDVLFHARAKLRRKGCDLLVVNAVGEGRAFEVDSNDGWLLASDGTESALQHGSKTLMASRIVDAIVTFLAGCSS
UniProt A4I591, 1-473: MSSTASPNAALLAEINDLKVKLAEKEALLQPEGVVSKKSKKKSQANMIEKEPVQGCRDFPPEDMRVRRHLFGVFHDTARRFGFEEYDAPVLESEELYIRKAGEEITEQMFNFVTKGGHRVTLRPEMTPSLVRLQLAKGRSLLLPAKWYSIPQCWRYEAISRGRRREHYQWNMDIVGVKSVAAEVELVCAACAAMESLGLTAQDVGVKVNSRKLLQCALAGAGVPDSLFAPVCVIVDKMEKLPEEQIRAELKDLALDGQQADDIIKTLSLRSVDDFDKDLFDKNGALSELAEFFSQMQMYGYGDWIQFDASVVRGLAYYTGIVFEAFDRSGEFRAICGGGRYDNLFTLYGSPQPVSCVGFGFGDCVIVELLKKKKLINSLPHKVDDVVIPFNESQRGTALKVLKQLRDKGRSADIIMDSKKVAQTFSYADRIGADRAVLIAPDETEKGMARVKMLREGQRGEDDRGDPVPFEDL

Source: ChEMBL document CHEMBL3988442, “University of Dundee, Small-Polar-MMV Screening Library” (2021).

A: 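Enzyme assay of histidyl-tRNA synthetase; the read-out is not stated. Target: Histidine-tRNA ligase, Trypanosoma cruzi CL Brener (UniProt Q4DA54). Concentration: 30 µM. Higher reads as stronger inhibition (inferred: compounds with an IC50 in retests scored well above the rest). Of about 69,000 compounds tested this way, about 31 (0.045%) reached 50% or more in at least one test.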
B: 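Cell assay of Leishmania donovani living inside macrophages; the read-out is not stated. Compounds at 30 µM. Direction is inferred from retests: higher values go with stronger inhibition. Size under these conditions: about 69,000 compounds, about 1,000 of them at 50% or above in at least one test.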
C: 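Assay of Toxoplasma gondii numbers, read through their beta-galactosidase reporter with a colour substrate. Concentration: 10 µM. The record gives no direction; the compounds picked for IC50 retests had high values, so higher reads as fewer parasites. Size under these conditions: about 67,000 compounds, about 260 of them at 50% or above in at least one test.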
D: 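Coenzyme A biosynthesis protein CoaBC, Mycobacterium tuberculosis (UniProt P9WNZ1). Enzyme assay of CoaBC with a phosphate dye (Biomol Green) read at 650 nm. Compounds at 30 µM. Direction is inferred from only a few compounds that gave an IC50; most scored high, so higher reads as stronger inhibition. Most strong results did not repeat in a second test. Of about 67,000 compounds tested this way, about 40 (0.06%) reached 50% or more in at least one test.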
E: 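Enzyme assay of histidyl-tRNA synthetase; the read-out is not stated. Target: Histidine-tRNA ligase, Leishmania infantum (UniProt A4I591). Tested at 30 µM. Higher reads as stronger inhibition (inferred: compounds with an IC50 in retests scored well above the rest). The assay is labelled LdHisRS but filed under L. infantum. Size under these conditions: about 69,000 compounds, about 410 of them at 50% or above in at least one test.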

The filed quantity is “Percent Effect” (%). The controls that fix the scale are not given in the record; negative values are as filed. This is an unselected part of the compounds tested. Two or more numbers in one place are separate tests of the same structure; such repeats can differ widely. A dash means the value is not listed here; it may have been measured.

compound,A,B,C,D,E
Cc1cc(C(=O)OCC2CCCN2C(N)=O)c(C)o1 (stereo not drawn),5.172,2.208,-16.74,2.947,2.632
N#Cc1ccc(C(=O)O)nc1/C=C/c1cccc(Br)c1,-6.077,-2.655,1.652,-3.125,4.167
CCOc1ccc(S(=O)(=O)NCCc2ccc(N(C)C)cc2)cc1F,4.124,17.58 & 27.41,5.534,-1.057,15.65
CC(C)(C)CN1CCCC12Cc1ccccc1CNC2=O (stereo not drawn),8.876,-0.6616,11.43,-5.526,17.93
c1cc2c(cc1-c1noc3c1CN(C1CCSC1)CC3)OCO2 (stereo not drawn),22.22,-5.221,-0.06618,3.194,30.11
Cc1ccc(C(=O)N2CCCC(Nc3ccc(F)cc3)C2)cc1 (stereo not drawn),1.508,-24.15,-45.82,0.8444,7.2
Cc1cc(C)n2c(CCCNS(=O)(=O)c3cccs3)nnc2n1,1,-28.63,6.574,0.4843,-2.174
CCc1cnc(C)nc1NCCSc1nnc(C)n1CC,-14.49,-13.99,-4.729,6.584,10.83
O=C(c1ccccc1)N1CCC[C@]2(C[C@@H](OCc3ccncc3)CO2)C1,11.44,-,-,2.581,22.22
C[C@@H]1CN(C(=O)CCCN2CCOCC2)C[C@@]1(O)C1CC1,-1.02,17.29,9.732,-9.287,-5.714
Cc1ccc(NC(=O)CNc2ccn(CC(N)=O)n2)c(Cl)c1,12.07,3.06,0.9091,-10.81,20.18
CNCC(=O)NC1CC(C)(C)Cc2nc(C(C)(C)C)ncc21 (stereo not drawn),6.468,16.77,9.792,3.639,13.25
COCCN1CCC(c2nc3ccc(NC4CCC4)cn3n2)CC1,9.548,-,-,0.6188,25.74
CC(C(=O)N(C)Cc1ccc(Br)o1)n1cncn1 (stereo not drawn),4.762,22.08,-5.725,0.6198,13.7
c1cc(CN2CCc3ncnc(C4CCOC4)c3CC2)ccn1 (stereo not drawn),2.488,-,-,1.935,19.44
Cc1ccccc1CC(=O)N1CC[C@@](O)(CNS(C)(=O)=O)[C@H](O)C1,2.985,27.82 & 0.6217,22.64,0.9732,15.79
CN(C)C(=O)c1ccccc1NC(=O)N(C)Cc1ccccc1O,5.155,-2.383,-8.253,3.667,6.452
CC(C)CCN1CCc2[nH]nc(C(=O)N3CCCC3C)c2C1 (stereo not drawn),-0.9709,-,-,4.326,9.709
NC(=O)NC1CCN(Cc2ccc3c(c2)CCC3)CC1,6.173,38.46,1.385,3.313,7.843
CS(=O)(=O)NCC1(O)CCCN(C(=O)CCn2cc(Cl)cn2)CC1 (stereo not drawn),0.5291,24.24,-11.1,10.93,12
Cn1nc2c(cc1=O)CN(Cc1nc(C(C)(C)C)no1)CC2,5.66,27.99,3.431,10.82,82.43
COc1ccc(F)cc1S(=O)(=O)NCC(O)c1sccc1C (stereo not drawn),4.124,22.28 & 3.468,23.81,6.131,19.13
Cn1ccc2cc(C(=O)Nc3nc[nH]n3)ccc21,1.22,1.199 & 21.79,-5.519,3.544,18.42
COC(=O)CCNC(=O)C1CC(=O)N(C2CCCC2)C1 (stereo not drawn),-0.5348,7.952,2.993,-1.863,13.46
CC(C)(C)n1ncc2c1CCCC2NCc1ccc2ncccc2c1 (stereo not drawn),5.263,22.64,7.186,-0.578,12.5
[H][C@@]12CCCCCN(C)[C@@]1([H])[C@H](c1ccccc1)CN2C(=O)c1ccccn1,-,-7.284,-15.03,-,-
CN(C)Cc1cnc2n1CCN(C(=O)Cc1ccsc1)CC2.O=C(O)C(F)(F)F,-,-10.1,-2.211,-,-
CC(NCc1ccc(C(N)=O)cc1)c1ccc(Cl)c(Cl)c1 (stereo not drawn),4.082,-,-,-1.124,16.53
Cc1c(C(=O)NC(C)CC(=O)c2cccs2)cnn1C (stereo not drawn),5.941,-4.617,-10.2,-4.126,0
[H][C@@]12CCNC[C@]1([H])N(C(=O)C1CCCC1)C2,-,5.797,-14.01,-,-
[H][C@@]12CN(Cc3nccn3C)C(=O)N1CCN(S(C)(=O)=O)C2,-,25.24,-2.603,-,-
CNC(=O)[C@@H](C)NC(=O)c1cc(-c2ccc(F)cc2)c(C)s1,7.182,20.18,2.18,-0.3822,2.073
COc1ncccc1-c1cc(C(=O)NC2CC2)ccn1,9.877,9.648,9.906,6.503,-39.22
O=C(CN1CCCC(Cn2cncn2)C1)NCc1ccco1 (stereo not drawn),1.515,24.81,-4.206,10.85,-50
Cc1noc(C)c1CN1CCC2(CC1)NC(=O)CC2c1ccccc1 (stereo not drawn),7.407,-,-,5.432,11.82
O=C(NCc1ccccc1-n1cccn1)C1CC2(CCNCC2)CN1 (stereo not drawn),2.4,31.67,-47.54,-37.45,-1.639
CN1CCc2c(C#N)c(NCc3cccnc3)n3cnnc3c2C1,2.439,-,-,3.291,18.42
O=C(O)C(F)(F)F.c1csc(CN2CCCn3cnc(COCC4CC4)c3C2)n1,-,26.9,0.9852,-,-

4 of the entries, repeated:

compound,A,B,C,D,E
CN(C)C(=O)c1ccccc1NC(=O)N(C)Cc1ccccc1O,5.155,-2.383,-8.253,3.667,6.452
O=C(CN1CCCC(Cn2cncn2)C1)NCc1ccco1 (stereo not drawn),1.515,24.81,-4.206,10.85,-50
Cc1c(C(=O)NC(C)CC(=O)c2cccs2)cnn1C (stereo not drawn),5.941,-4.617,-10.2,-4.126,0
N#Cc1ccc(C(=O)O)nc1/C=C/c1cccc(Br)c1,-6.077,-2.655,1.652,-3.125,4.167